In the supplement of paper PMC10849652:
This is one part of the list.

By UniProt entry, the sequences of proteins in these tests, tags left out. Where a name states a change or a piece, a line headed by the entry shows the natural chain unless it says otherwise.
UniProt Q86X29: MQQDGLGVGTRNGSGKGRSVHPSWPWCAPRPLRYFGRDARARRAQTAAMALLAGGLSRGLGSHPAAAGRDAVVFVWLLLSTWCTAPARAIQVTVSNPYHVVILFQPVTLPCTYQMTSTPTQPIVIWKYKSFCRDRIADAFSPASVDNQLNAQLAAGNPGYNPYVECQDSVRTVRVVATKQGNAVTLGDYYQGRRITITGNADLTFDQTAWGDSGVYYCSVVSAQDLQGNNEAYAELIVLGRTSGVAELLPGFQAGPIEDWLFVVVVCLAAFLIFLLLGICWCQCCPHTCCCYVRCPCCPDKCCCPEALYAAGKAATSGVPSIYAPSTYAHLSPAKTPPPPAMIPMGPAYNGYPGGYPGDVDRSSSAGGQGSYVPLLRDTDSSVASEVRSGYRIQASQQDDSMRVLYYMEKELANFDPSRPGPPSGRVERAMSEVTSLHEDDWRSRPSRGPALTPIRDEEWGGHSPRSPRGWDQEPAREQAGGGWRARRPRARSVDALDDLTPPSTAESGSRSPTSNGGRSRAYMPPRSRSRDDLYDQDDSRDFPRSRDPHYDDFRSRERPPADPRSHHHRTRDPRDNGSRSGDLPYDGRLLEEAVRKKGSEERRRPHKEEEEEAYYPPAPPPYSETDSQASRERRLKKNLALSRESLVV
UniProt P07948: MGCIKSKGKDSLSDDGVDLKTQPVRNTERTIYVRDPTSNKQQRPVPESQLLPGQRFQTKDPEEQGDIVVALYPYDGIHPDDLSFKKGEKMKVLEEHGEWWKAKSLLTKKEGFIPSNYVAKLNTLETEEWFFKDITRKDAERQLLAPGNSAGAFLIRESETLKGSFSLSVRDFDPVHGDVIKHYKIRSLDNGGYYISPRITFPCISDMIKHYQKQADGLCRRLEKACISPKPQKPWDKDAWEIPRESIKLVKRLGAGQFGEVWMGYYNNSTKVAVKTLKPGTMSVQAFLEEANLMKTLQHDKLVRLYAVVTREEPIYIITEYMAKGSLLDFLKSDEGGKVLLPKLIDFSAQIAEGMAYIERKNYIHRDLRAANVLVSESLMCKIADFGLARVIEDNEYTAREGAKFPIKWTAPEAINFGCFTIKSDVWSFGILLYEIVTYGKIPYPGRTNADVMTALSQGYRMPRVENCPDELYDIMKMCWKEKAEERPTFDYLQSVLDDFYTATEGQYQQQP
UniProt Q15759, whole entry, looked up: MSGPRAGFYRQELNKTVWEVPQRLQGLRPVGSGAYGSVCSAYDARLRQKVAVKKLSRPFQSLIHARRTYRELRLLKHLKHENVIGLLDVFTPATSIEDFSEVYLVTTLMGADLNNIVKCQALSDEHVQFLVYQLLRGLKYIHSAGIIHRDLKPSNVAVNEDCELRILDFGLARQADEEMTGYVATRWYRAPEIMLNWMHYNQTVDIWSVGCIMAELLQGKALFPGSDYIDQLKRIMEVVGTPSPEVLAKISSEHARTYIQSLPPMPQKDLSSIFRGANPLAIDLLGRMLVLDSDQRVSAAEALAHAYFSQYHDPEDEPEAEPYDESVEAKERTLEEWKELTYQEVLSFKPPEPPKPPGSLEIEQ
UniProt Q13164: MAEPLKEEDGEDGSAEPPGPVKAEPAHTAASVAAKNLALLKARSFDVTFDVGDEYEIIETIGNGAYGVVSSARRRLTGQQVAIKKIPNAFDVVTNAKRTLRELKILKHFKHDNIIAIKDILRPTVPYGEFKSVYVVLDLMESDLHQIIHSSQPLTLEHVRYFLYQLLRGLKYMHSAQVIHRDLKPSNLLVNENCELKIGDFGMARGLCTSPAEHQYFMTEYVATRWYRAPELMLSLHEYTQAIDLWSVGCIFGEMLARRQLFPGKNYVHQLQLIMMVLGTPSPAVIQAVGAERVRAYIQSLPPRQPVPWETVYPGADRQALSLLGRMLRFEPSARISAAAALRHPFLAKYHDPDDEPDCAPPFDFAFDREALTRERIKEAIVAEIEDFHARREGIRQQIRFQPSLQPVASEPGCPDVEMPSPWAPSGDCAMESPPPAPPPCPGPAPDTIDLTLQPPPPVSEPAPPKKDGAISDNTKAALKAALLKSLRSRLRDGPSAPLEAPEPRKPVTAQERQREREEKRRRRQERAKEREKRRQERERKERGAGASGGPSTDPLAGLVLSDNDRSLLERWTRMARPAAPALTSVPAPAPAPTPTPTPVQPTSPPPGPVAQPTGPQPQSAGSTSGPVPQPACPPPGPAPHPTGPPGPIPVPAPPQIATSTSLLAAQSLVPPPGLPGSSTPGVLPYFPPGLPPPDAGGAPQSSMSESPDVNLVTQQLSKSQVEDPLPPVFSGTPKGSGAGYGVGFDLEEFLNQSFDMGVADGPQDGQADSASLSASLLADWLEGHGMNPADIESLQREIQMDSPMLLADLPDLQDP
UniProt P43355: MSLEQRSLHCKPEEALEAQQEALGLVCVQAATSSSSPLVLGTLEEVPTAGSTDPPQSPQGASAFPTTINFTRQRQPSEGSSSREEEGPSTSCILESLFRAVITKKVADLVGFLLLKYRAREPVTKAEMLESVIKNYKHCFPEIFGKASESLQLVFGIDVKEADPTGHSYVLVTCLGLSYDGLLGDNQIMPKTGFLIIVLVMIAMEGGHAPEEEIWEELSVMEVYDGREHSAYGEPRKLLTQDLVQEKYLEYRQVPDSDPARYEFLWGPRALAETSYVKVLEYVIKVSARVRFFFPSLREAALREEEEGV
UniProt Q8IVH8: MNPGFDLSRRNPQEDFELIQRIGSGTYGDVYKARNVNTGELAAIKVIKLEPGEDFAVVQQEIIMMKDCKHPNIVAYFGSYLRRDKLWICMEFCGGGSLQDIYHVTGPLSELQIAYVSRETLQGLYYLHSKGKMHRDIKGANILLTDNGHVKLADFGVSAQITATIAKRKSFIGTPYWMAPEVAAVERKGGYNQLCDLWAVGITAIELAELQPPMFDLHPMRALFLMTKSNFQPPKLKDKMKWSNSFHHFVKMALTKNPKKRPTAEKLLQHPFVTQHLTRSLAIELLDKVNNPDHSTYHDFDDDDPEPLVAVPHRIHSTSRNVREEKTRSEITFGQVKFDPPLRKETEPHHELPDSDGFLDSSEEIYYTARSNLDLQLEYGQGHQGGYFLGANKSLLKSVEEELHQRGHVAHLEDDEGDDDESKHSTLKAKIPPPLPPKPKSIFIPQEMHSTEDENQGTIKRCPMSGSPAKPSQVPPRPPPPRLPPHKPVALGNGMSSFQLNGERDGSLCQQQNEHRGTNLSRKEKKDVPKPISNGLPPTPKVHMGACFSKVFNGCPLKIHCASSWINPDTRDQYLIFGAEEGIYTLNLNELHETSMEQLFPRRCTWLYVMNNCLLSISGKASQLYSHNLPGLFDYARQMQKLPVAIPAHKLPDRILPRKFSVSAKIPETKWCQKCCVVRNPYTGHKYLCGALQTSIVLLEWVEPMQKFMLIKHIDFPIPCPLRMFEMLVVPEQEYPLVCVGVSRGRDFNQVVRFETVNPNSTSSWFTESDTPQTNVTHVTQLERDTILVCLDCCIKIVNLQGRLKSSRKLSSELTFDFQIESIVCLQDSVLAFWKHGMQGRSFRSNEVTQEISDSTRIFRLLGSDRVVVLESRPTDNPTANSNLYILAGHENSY
UniProt Q02779: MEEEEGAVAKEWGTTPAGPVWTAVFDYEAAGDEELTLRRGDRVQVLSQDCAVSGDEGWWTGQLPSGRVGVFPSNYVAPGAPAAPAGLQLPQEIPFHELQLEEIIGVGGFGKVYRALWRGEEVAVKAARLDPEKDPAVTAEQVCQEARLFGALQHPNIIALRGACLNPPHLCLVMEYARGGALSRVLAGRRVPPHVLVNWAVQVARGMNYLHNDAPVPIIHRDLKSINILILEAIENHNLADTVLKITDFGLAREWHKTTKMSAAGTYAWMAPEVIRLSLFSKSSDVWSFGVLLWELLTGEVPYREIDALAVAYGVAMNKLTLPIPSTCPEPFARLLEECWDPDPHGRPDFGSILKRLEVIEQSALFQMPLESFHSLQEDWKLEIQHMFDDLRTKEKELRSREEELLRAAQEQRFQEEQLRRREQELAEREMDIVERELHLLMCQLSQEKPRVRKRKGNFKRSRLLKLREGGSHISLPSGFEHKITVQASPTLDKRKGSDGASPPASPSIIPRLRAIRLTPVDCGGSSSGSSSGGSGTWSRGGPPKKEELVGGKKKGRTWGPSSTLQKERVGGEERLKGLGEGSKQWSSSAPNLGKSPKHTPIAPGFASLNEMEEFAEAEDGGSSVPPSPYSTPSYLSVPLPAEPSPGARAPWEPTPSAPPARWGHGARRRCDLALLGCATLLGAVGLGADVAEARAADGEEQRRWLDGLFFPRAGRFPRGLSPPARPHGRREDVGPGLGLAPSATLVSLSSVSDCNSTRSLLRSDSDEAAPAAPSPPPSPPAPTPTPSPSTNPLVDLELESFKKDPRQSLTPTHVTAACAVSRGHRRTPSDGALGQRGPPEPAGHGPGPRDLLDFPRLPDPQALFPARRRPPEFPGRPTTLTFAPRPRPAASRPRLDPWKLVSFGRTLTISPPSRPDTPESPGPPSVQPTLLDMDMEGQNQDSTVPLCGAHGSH
UniProt Q9BPZ7, whole entry, looked up: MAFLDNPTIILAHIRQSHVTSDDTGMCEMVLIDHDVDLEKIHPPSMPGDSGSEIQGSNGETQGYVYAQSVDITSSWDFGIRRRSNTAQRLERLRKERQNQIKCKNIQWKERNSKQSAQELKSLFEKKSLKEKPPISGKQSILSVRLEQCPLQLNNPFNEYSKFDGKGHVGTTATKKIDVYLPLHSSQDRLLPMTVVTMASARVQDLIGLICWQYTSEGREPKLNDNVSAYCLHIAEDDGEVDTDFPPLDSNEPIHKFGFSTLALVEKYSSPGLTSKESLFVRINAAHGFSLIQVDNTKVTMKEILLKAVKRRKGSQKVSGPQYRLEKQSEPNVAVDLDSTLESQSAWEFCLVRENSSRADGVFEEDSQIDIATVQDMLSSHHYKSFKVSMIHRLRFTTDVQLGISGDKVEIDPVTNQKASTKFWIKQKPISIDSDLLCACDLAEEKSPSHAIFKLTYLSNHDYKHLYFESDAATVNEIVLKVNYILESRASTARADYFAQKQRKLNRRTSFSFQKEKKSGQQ
UniProt Q9Y5V3: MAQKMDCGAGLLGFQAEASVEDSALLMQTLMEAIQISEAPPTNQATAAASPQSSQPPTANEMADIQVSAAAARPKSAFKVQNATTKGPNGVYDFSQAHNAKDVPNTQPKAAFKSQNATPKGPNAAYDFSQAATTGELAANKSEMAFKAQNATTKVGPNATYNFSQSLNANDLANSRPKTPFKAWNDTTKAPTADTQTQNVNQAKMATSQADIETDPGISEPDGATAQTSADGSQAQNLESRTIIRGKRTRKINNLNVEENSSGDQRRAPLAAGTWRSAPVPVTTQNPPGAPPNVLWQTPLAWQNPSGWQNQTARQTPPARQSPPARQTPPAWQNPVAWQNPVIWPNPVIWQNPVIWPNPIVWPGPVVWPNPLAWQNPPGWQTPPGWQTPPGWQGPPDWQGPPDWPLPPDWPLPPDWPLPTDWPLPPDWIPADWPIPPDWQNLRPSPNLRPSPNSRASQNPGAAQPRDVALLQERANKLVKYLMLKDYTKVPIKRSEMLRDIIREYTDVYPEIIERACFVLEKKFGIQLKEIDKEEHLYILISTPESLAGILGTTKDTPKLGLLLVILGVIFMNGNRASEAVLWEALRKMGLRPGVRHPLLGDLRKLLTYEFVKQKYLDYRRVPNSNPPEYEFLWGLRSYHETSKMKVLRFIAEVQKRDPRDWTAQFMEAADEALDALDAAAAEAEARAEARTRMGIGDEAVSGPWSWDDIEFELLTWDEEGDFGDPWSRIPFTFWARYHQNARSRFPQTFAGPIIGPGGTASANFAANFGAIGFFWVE
UniProt Q6NSJ5: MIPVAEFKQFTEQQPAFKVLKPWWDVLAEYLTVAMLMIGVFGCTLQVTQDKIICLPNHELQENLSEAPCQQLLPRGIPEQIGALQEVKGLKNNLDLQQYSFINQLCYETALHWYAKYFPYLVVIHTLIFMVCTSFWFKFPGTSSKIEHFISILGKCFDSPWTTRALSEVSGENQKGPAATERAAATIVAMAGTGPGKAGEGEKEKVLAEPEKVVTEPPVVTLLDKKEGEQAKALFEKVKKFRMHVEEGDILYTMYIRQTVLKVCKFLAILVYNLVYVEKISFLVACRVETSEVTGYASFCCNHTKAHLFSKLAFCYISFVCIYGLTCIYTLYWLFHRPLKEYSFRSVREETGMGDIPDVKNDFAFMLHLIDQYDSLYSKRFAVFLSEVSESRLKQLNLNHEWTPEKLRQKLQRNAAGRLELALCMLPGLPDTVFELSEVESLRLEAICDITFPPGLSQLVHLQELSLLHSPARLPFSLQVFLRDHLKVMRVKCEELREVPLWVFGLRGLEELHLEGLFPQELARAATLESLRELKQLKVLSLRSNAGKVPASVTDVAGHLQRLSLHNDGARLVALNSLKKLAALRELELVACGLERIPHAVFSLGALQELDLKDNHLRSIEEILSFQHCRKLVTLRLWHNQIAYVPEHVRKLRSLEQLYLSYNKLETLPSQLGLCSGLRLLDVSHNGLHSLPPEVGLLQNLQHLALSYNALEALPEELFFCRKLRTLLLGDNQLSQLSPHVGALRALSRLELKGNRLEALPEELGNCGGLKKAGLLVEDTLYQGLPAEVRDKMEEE

Legend:
Assay in all cases: log2 fold change, soluble protein after heating vs DMSO (PISA); higher = thermal stabilisation; K562 cells, 10 uM, 30 min; active = over 0.2 and 3.5 SD of the protein, either way, in both replicates (recomputed)
[1] = compound: CN1C2=C(C3=C1C(=O)N(N=C3)CC4=CC(=CC=C4)N)SC(=C2)S(=O)C
Procedure, shortened: (§1)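 K562 cells at 2×10^6 cells/mL were treated with 10 μM compound for 30 min. Aliquots were heated for 3 min across 48°C-58°C, pooled, and extracted in PBS with 0.5% NP-40 at 4°C; soluble protein was the supernatant after 21,000xg for 90 min. Soluble protein was quantified by TMTpro 16plex LC-MS/MS with channel sums equalised, and reported as log2 fold change in thermal stability against DMSO controls, with values from duplicates.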

saracatinib = compound: CN1CCN(CCOc2cc(OC3CCOCC3)c3c(Nc4c(Cl)ccc5c4OCO5)ncnc3c2)CC1 [saracatinib]
Procedure, shortened: as §1

[2] = compound: CNc1nc(-c2ccc3c(N)n[nH]c3c2)cc(N2C[C@@H](C(=O)NC3CCCCC3)CC[C@H]2C)n1
Procedure, shortened: as §1

volasertib = compound: CC[C@@H]1C(=O)N(C)c2cnc(Nc3ccc(C(=O)N[C@H]4CC[C@H](N5CCN(CC6CC6)CC5)CC4)cc3OC)nc2N1C(C)C [volasertib]
Procedure, shortened: as §1

sotrastaurin = compound: CN1CCN(c2nc(C3=C(c4c[nH]c5ccccc45)C(=O)NC3=O)c3ccccc3n2)CC1 [sotrastaurin]
Procedure, shortened: as §1

Tubastatin A = compound: CN1CCc2c(c3ccccc3n2Cc2ccc(C(=O)NO)cc2)C1 [Tubastatin A]
Procedure, shortened: as §1

[3] = compound: CC[C@H](C)N1C=C(C2=C(C=C(C=C21)C3=CN=C(C=C3)N4CCNCC4)C(=O)NCC5=C(C=C(NC5=O)C)C)C
Procedure, shortened: as §1

epoxomicin = compound: CC[C@H](C)[C@@H](C(=O)N[C@@H]([C@@H](C)O)C(=O)N[C@@H](CC(C)C)C(=O)[C@]1(CO1)C)NC(=O)[C@H]([C@@H](C)CC)N(C)C(=O)C [epoxomicin]
Procedure, shortened: as §1

[4] = compound: CCn1c(C(=O)N(C2CC2)C2CC2)cc2c3c(ncn3C)c(Nc3cc(C)n(C)n3)nc21
Procedure, shortened: as §1

rosiglitazone = compound: CN(CCOC1=CC=C(C=C1)C[C@H]2C(=O)NC(=O)S2)C3=CC=CC=N3 (racemic) [rosiglitazone]
Procedure, shortened: as §1

[5] = compound: CNC(=O)C1=CC=CC=C1NC2=NC(=NC=C2Cl)NC3=C(C=C(C=C3)N4CCOCC4)OC
Procedure, shortened: as §1

[6] = compound: CCn1cc(-c2ccnc3[nH]c(-c4cccc(CN(C)C)c4)cc23)c(-c2ccc(NC(=O)N(C)C)cc2)n1
Procedure, shortened: as §1

[7] = compound: CN(C)CC(=O)Nc1ccc2[nH]c(=O)c3ccccc3c2c1
Procedure, shortened: as §1

[8] = compound: CN1CCC(CNc2ccc3ncc(-c4cccc(OC(F)(F)F)c4)n3n2)CC1
Procedure, shortened: as §1

alvocidib = compound: CN1CC[C@H](c2c(O)cc(O)c3c(=O)cc(-c4ccccc4Cl)oc23)[C@H](O)C1 [alvocidib]
Procedure, shortened: as §1

defactinib = compound: CNC(=O)c1ccc(Nc2ncc(C(F)(F)F)c(NCc3nccnc3N(C)S(C)(=O)=O)n2)cc1 [defactinib]
Procedure, shortened: as §1

[9] = compound: COC(=O)[C@H](CCSC)NC(=O)C1=C(C=C(C=C1)NC[C@H](CS)N)C2=CC=CC=C2
Procedure, shortened: as §1

rucaparib = compound: CNCc1ccc(-c2[nH]c3cc(F)cc4c3c2CCNC4=O)cc1 [rucaparib]
Procedure, shortened: as §1

encorafenib = compound: COC(=O)N[C@@H](C)CNc1nccc(-c2cn(C(C)C)nc2-c2cc(Cl)cc(NS(C)(=O)=O)c2F)n1 [encorafenib]
Procedure, shortened: as §1

[10] = compound: CC[C@@H]1C(=O)N(C)c2cnc(Nc3ccc(C(=O)NC4CCN(C)CC4)cc3OC)nc2N1C1CCCC1
Procedure, shortened: as §1

Measured: log2 fold change

LYPLA1, A0A087X1K9
inactive: [1] -0.409 | saracatinib -0.199 | [2] 0.201

LSR isoform 3 (UniProt Q86X29)
inactive: volasertib -0.096 | [1] 0.047 | saracatinib -0.207 | sotrastaurin 0.176 | Tubastatin A 0.084 | [2] 0.114

LRRC8B (UniProt Q6P9F7)
inactive: volasertib 0.304 | [3] 0.029 | epoxomicin 0.005 | [4] -0.041 | rosiglitazone 0.024 | [1] -0.002 | saracatinib 0.154 | sotrastaurin -0.174 | [5] -0.016 | [2] -0.036

LTBP1 isoform 4 (UniProt Q14766)
inactive: volasertib -0.02 | [3] -0.081 | epoxomicin 0.133 | [4] 0.045 | [6] 0.065 | [7] -0.153 | rosiglitazone 0.108 | [1] 0.152 | [8] 0.358 | saracatinib 0.15 | alvocidib 0.011 | Tubastatin A 0.216 | [5] -0.093 | defactinib 0.015 | [2] 0.136 | [9] 0.08

LSM14A, A0A140TA76
inactive: [7] -0.136 | Tubastatin A 0.028 | defactinib 0.217 | [9] -0.088

LRRCC1 (UniProt Q9C099)
inactive: [1] 0.281 | saracatinib 0 | Tubastatin A 0.292 | [2] 0.06

MANSC1 (UniProt Q9H8J5)
inactive: [3] 0.162 | alvocidib -0.315 | Tubastatin A -0.099

LYST (UniProt Q99698)
inactive: [3] -0.297 | epoxomicin -0.217 | [6] 0.143 | [7] -0.187 | rosiglitazone 0.072 | [1] 0.056 | [8] -0.426 | saracatinib -0.081 | defactinib -0.004 | [2] -0.08 | [9] 0.063

LYN isoform 2 (UniProt P07948)
inactive: volasertib -0.003 | [3] 0.036 | epoxomicin 0.246 | [7] 0.007 | sotrastaurin 0.034 | [5] 0.043 | defactinib -0.035 | [9] -0.004

MAPK11 (UniProt Q15759)
inactive: [6] 0.025 | [8] -0.263 | Tubastatin A 0.208 | [5] 0.615

MAPT isoform 9 (UniProt P10636)
inactive: volasertib 0 | epoxomicin -0.094 | [4] 0.063 | [7] -0.081 | rosiglitazone 0.017 | sotrastaurin 0.02 | [5] 0.014 | defactinib -0.124 | [9] -0.145

MAP4K5 (UniProt Q9Y4K4)
inactive: volasertib -0.135 | [3] -0.004 | epoxomicin -0.014 | [6] -0.126 | [7] -0.026 | [8] 0.051 | Tubastatin A 0.113 | [5] -0.02 | defactinib -0.02 | rucaparib -0.08 | encorafenib 0.082 | [9] -0.041

MAPK7 (UniProt Q13164)
inactive: epoxomicin 0.093 | [6] -0.049 | [8] -0.125

MAML2 (UniProt Q8IZL2)
inactive: [4] -0.062 | [5] -0.373

LSM11 (UniProt P83369)
inactive: [6] 0.031 | [8] 0.013 | alvocidib 0.111

MAML1 (UniProt Q92585)
active: [5] 0.644
inactive: epoxomicin 0.059 | [7] -0.055 | sotrastaurin -0.051 | defactinib -0.179 | [9] -0.327

MAGI3 isoform 1 (UniProt Q5TCQ9)
inactive: [10] 0.092 | epoxomicin -0.029 | [7] 0.006 | rosiglitazone -0.193 | [1] 0.205 | saracatinib -0.393 | sotrastaurin -0.111 | Tubastatin A 0.26 | defactinib 0.037 | rucaparib 0.166 | [2] 0.215 | encorafenib 0.031 | [9] -0.007

MAGEA1 (UniProt P43355)
inactive: volasertib -0.45 | [3] 0.094 | epoxomicin 0.174 | [4] -0.046 | [6] 0.127 | rosiglitazone 0.039 | [8] -0.008 | alvocidib -0.026 | [5] -0.029

LUZP1 (UniProt Q86V48)
inactive: volasertib -0.021 | [3] -0.026 | epoxomicin -0.22 | [6] 0.026 | [7] 0.035 | [1] 0.026 | [8] -0.039 | saracatinib 0.075 | sotrastaurin -0.088 | Tubastatin A 0.13 | [5] -0.022 | defactinib -0.498 | [2] 0.002 | [9] -0.209

MAP4K3 (UniProt Q8IVH8)
inactive: [10] -0.035 | [4] 0.038 | [7] -0.315 | rosiglitazone 1.05 | sotrastaurin -0.284 | [5] -0.067 | defactinib -0.184 | rucaparib -0.219 | encorafenib 0.373 | [9] 0.119

MAD1L1 (UniProt Q9Y6D9)
inactive: volasertib -0.167 | epoxomicin 0.267 | [4] -0.003 | [6] -0.126 | [7] 0.237 | rosiglitazone 0.257 | [8] -0.061 | alvocidib -0.021 | Tubastatin A 0.073 | [5] -0.008 | defactinib -0.193 | [9] -0.001

MAP3K10 (UniProt Q02779)
inactive: volasertib 0.075 | [6] -0.015 | [7] 0.059 | rosiglitazone 0.033 | [8] 0.081 | sotrastaurin -0.208 | Tubastatin A 0.036 | defactinib -0.129 | [9] -0.014

Quoted from the listing (2 entries):
MAGEA1 (UniProt P43355)
inactive: volasertib -0.45 | [3] 0.094 | epoxomicin 0.174 | [4] -0.046 | [6] 0.127 | rosiglitazone 0.039 | [8] -0.008 | alvocidib -0.026 | [5] -0.029

LUZP1 (UniProt Q86V48)
inactive: volasertib -0.021 | [3] -0.026 | epoxomicin -0.22 | [6] 0.026 | [7] 0.035 | [1] 0.026 | [8] -0.039 | saracatinib 0.075 | sotrastaurin -0.088 | Tubastatin A 0.13 | [5] -0.022 | defactinib -0.498 | [2] 0.002 | [9] -0.209

Further results:

MAPRE3 isoform 2 (UniProt Q9UPY8)
inactive: volasertib 0.165 | [3] 0.04 | Tubastatin A 0.13

LRRFIP1 isoform 4 (UniProt Q32MZ4)
inactive: epoxomicin -0.113 | [6] 0.212 | [1] 0.105 | [8] 0.349 | saracatinib 0.008 | [5] -0.111 | [2] -0.089

MAPKAP1 (UniProt Q9BPZ7)
inactive: epoxomicin 0.372 | [6] -0.114 | [8] -0.12 | Tubastatin A -0.142

MAGED1 isoform 2 (UniProt Q9Y5V3)
inactive: volasertib -0.306 | [3] -0.01 | epoxomicin -0.053 | [7] 0.012 | [1] 0.399 | saracatinib -0.073 | sotrastaurin -0.196 | [5] 0.015 | defactinib 0.036 | [2] 0.117 | [9] 0.197

LRRC8E (UniProt Q6NSJ5)
inactive: volasertib -0.048 | epoxomicin -0.009 | [4] -0.113 | [6] -0.161 | [7] -0.057 | rosiglitazone -0.078 | [1] -0.023 | [8] -0.006 | saracatinib -0.117 | sotrastaurin 0.328 | alvocidib 0 | Tubastatin A -0.023 | [5] 0.075 | defactinib 0.066 | [2] -0.128 | [9] 0.019
